Reference: PubChem BioAssay AID651640 (Broad Institute, 2012)
Hit rate of the full screen: of about 350,000 compounds, about 6,000 (1.7%) were called active. The shares of active, inactive and inconclusive entries below differ from those in the screen. No stated cut-off is given here; in the data, active means CPE inhibition above about 20% (passing the limit was not always enough); inconclusive means no clear call, values can overlap the other calls; tested in BHK-21 cells.

Test: protection of cells from dengue 2 killing – plate reader, single concentration, primary screen (AID 651640);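 further: 0% = median of neutral control wells and 100% = median of positive control wells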
Conditions: DENV2-infected cells, cytopathic effect rescue, at 9.99 µM, hits give high values

SMILES	CPE inhibition
Fc1cc2[nH]c(=S)[nH]c2cc1Cl	inconclusive: 28.1%
Cc1ccc(S(=O)(=O)N(C)C[C@H]2OCCCC[C@@H](C)Oc3ccc(NC(=O)NC(C)C)cc3C(=O)N([C@H](C)CO)C[C@@H]2C)cc1	active: 72.4%
CO[C@@H]1CN(C)C(=O)c2cc(NC(=O)C3CCCCC3)ccc2OC[C@@H](C)N(C(=O)c2ccccc2)C[C@@H]1C	inactive: -1.96%
COc1ccc2c3c([nH]c2c1)[C@H](CO)N(C(C)=O)CC31CCN(C(=O)Nc2ccc(F)cc2)CC1	inactive: -3.32%
CCOC(=O)C1CCN(S(=O)(=O)c2ccc3c(c2)CC(C)N3C(=O)C2CCC2)CC1 (centres undefined)	inactive: 2.55%
C[C@@H]1CN([C@@H](C)CO)S(=O)(=O)c2ccc(-c3cccnc3)cc2O[C@H]1CN(C)C(=O)C1CCCCC1	inactive: -8.06%
COc1ccc(NS(=O)(=O)c2ccc(NC(=S)NCC3CCCO3)cc2)cc1 (centres undefined)	inconclusive: 53.2%
C[C@H]1CN([C@@H](C)CO)C(=O)c2cccc(NC(=O)c3ccncc3)c2O[C@@H]1CN(C)C(=O)Nc1ccccc1	inconclusive: 34.5%
O=C(C[C@@H]1C=C[C@@H](NC(=O)c2cccc(F)c2)[C@@H](CO)O1)NCc1ccc(Oc2ccccc2)cc1	inactive: -16.5%
C[C@H](CO)N1C[C@H](C)[C@@H](CN(C)S(=O)(=O)c2ccccc2)Oc2cc(-c3cccc(F)c3)ccc2S1(=O)=O	inconclusive: 20.6%
Cc1cccc(C)c1N=Nc1c(C)cc(O)cc1C	inconclusive: 21.8%
COc1ccc2[nH]c(=O)c(CN(C(C)=O)c3cc(C)ccc3C)cc2c1	inconclusive: 22.3%
C[C@@H]1CN([C@H](C)CO)C(=O)c2cc(NC(=O)Nc3ccc4c(c3)OCO4)ccc2O[C@H]1CN(C)S(C)(=O)=O	inactive: -0.445%
CNC[C@@H]1Oc2c(NS(=O)(=O)c3ccc(F)cc3)cccc2C(=O)N([C@H](C)CO)C[C@H]1C	active: 21.2%
COc1ccc([C@H]2C[C@H](O)[C@@H](n3cc(COC(=O)c4ccccc4)nn3)CN2CC2CCCCC2)cc1	active: 20.1%
O=c1[nH]c(=O)n(C2OC(CO)C(O)C2O)cc1N1CCOCC1 (centres undefined)	inconclusive: 34.3%
CC1(C(=O)Nc2cccc(OC(F)(F)F)c2)Cc2c(-c3cccc(C(N)=O)c3)ccnc2O1 (centres undefined)	active: 20.7%
C[C@@H]1CCCCO[C@@H](CN(C)S(=O)(=O)c2ccc(F)cc2)[C@H](C)CN([C@H](C)CO)C(=O)c2cc(NC(=O)C3CCCCC3)ccc2O1	inconclusive: 21.7%
CCOC(=O)c1csc(NC(=O)C2=COCCO2)n1	inconclusive: 29.1%

3 structures already listed, arranged by heavy-atom count, ascending.
SMILES	CPE inhibition
Cc1cccc(C)c1N=Nc1c(C)cc(O)cc1C	inconclusive: 21.8%
CC1(C(=O)Nc2cccc(OC(F)(F)F)c2)Cc2c(-c3cccc(C(N)=O)c3)ccnc2O1 (centres undefined)	active: 20.7%
CO[C@@H]1CN(C)C(=O)c2cc(NC(=O)C3CCCCC3)ccc2OC[C@@H](C)N(C(=O)c2ccccc2)C[C@@H]1C	inactive: -1.96%
